Source: PubChem BioAssay AID280 (DTP/NCI, 2004)
The list does not hold the whole screen: it is rich in T/C values a quarter to a half above the control, in often repeated tests (any T/C) and in doses without a T/C. Further doses and runs are listed elsewhere. T/C is the treated group as % of the vehicle group. Some entries give survivors of the animals treated and no T/C: the source holds a T/C of zero for them, seemingly a mark for toxic or unscored doses. Some doses without a T/C left all or most animals alive at the check, yet need not have been tolerated: the source hardly ever lists a survival T/C far under the control, and the zero likely stands for such cases as well. Survivors were counted at the toxicity check, usually on the fifth day, unless a day is given; later deaths do not show. Schedule codes are those of the source, taken here to give the interval after Q, in days (D) or hours (H), and the number of doses after X. Some entries were tested several times; the values are given in rising order. Where survival is the endpoint, this PubChem deposit counts one and a half times the control or more as active, and values a quarter to a half above the control carry no call in these data; other NCI protocols may use other cut-offs. Some T/C values are followed by the survivors on the day toxicity was checked, most often the fifth; where none is given, no animal had died by that day.

Test system: nude mice, LOX melanoma ip, survival T/C
Assay: NCI In Vivo Anticancer Drug Screen. Data for tumor model Human Amelanotic Melanoma (LOX) (intraperitoneal) in NU/NU BALB/C (nude) mice
Details: T/C endpoint: median survival time, higher T/C = longer survival
Protocol: The antitumor activity of compounds was measured in mice bearing transplantable tumors. Survival or tumor size were measured and the results are expressed as the measurement made in the treated group (T) divided by the measurement made in the vehicle treated control group (C). The tumor model used in this assay is Human Amelanotic Melanoma (LOX) (intraperitoneal) in NU/NU BALB/C (nude) mice

[1] = dose: 600.0 mg/kg/injection, schedule: Q04DX003 (ip), vehicle: saline with Tween-80
[2] = dose: 400.0 mg/kg/injection, schedule: Q04DX003 (ip), vehicle: Klucel (hydroxypropylcellulose) (HPC)
[3] = dose: 1200.0 mg/kg/injection, schedule: Q04DX003 (ip), vehicle: saline with Tween-80

With `CC1Oc2cc3c(-c4c(O)cc(O)c5c(O)c6c(cc45)OC(C)C(C)C6=O)c(O)cc(O)c3c(O)c2C(=O)C1C` (stereo not given) the T/C (dose: 2.0 mg/kg/injection, schedule: Q04DX003 (ip), vehicle: suspension in saline) was 130 % of control, the T/C (dose: 8.0 mg/kg/injection, schedule: Q04DX003 (ip), vehicle: suspension in saline) was 146 % of control and the survivor count (dose: 16.0 mg/kg/injection, schedule: Q04DX003 (ip), vehicle: suspension in saline) was 1 of 6 on day 10.
For `Nc1ccn([C@@H]2C=C(CO)[C@@H](O)[C@H]2O)c(=O)n1`, the T/C (dose: 0.5 mg/kg/injection, schedule: Q01DX009 (ip), vehicle: saline) was 147 % of control, the T/C (dose: 2.0 mg/kg/injection, schedule: Q01DX009 (ip), vehicle: saline) was 146 % of control and the survivor count (dose: 4.0 mg/kg/injection, schedule: Q01DX009 (ip), vehicle: saline) was 6 of 6 on day 10. The survivor count (dose: 8.0 mg/kg/injection, schedule: Q01DX009 (ip), vehicle: saline) was 0 of 6 on day 10.
For `CO[C@@H]1C2=CC=CC=C[C@H]2n2c(=O)n(C)c(=O)n21`, the survivor count (dose: 300.0 mg/kg/injection, schedule: Q04DX003 (ip), vehicle: other) was 1 of 6 on day 10 and the survivor count (dose: 600.0 mg/kg/injection, schedule: Q04DX003 (ip), vehicle: other) was 0 of 6 on day 10.
`CCOc1ccc(C(C)c2cc3c(cc2OC)OCO3)cc1` (stereo not given) was tested, and the T/C (dose: 75.0 mg/kg/injection, schedule: Q04DX003 (ip), vehicle: distilled water + Tween-80) was 127 and 130 % of control, the T/C (dose: 150.0 mg/kg/injection, schedule: Q04DX003 (ip), vehicle: distilled water + Tween-80) was 131 % of control and the survivor count (dose: 1200.0 mg/kg/injection, schedule: Q04DX003 (ip), vehicle: distilled water + Tween-80) was 0 of 6 on day 10 and 1 of 6 on day 10.
For `C/C(=N\NC(=S)N1CC2CCC(CC2)C1)c1nccs1`, the survivor count (dose: 6.25 mg/kg/injection, schedule: Q04DX003 (ip), vehicle: saline with Tween-80) was 6 of 6 on day 10.
For `CO[C@H](/C(C)=C/C=C/C(C)=C/c1coc(C)n1)[C@H](C)[C@H]1C[C@@H](O)[C@@]2(C)O[C@H]2/C=C/[C@@H](C)[C@@H]2C[C@@H](CC(=O)O2)C[C@H]2O[C@@H]2C(=O)O1`, the T/C (dose: 0.13 mg/kg/injection, schedule: Q01DX009 (ip), vehicle: other) was 133 % of control, the T/C (dose: 0.2 mg/kg/injection, schedule: Q01DX009 (ip), vehicle: other) was 144 % of control and the T/C (dose: 0.33 mg/kg/injection, schedule: Q04DX003 (ip), vehicle: other) was 127 % of control. The survivor count (dose: 0.44 mg/kg/injection, schedule: Q01DX009 (ip), vehicle: other) was 4 of 6 on day 10, the survivor count (dose: 0.66 mg/kg/injection, schedule: Q01DX009 (ip), vehicle: other) was 0 of 6 on day 10 and the survivor count (dose: 1.0 mg/kg/injection, schedule: Q01DX009 (ip), vehicle: other) was 3 of 10 on day 10.
`COC(=O)C1C2CCCN2OC1(C)CO` (stereo not given) was tested, and the survivor count (dose: 125.0 mg/kg/injection, schedule: Q04DX003 (ip), vehicle: saline with Tween-80) was 6 of 6 on day 10 and the T/C (dose: 480.0 mg/kg/injection, schedule: Q04DX003 (ip), vehicle: saline) was 128 % of control.
With `CCOC(=O)c1ccc(NN=NCCF)cc1` the survivor count (dose: 1200.0 mg/kg/injection, schedule: Q04DX003 (ip), vehicle: distilled water + Tween-80 + alcohol) was 3 of 6 on day 10.
With `CN1CCN(CN2C(=O)C3C4C=CC(C3C2=O)C2C3C(=O)N(CN5CCN(C)CC5)C(=O)C3C42)CC1` (stereo not given) the survivor count (dose: 200.0 mg/kg/injection, schedule: Q04DX003 (ip), vehicle: water) was 1 of 6 on day 10.
`O=NN(CCCl)C(=O)NCCCl` was tested, and the T/C (dose: 1.25 mg/kg/injection, schedule: Q01DX015 (ip), vehicle: saline + alcohol) was 137 % of control, the T/C (dose: 5.0 mg/kg/injection, schedule: Q04DX003 (ip), vehicle: saline + alcohol) was 138 % of control and the T/C (dose: 10.0 mg/kg/injection, schedule: Q01DX001 (ip), vehicle: saline + alcohol) was 138 % of control. For the same molecule, the T/C (dose: 10.0 mg/kg/injection, schedule: Q01DX015 (ip), vehicle: saline + alcohol) was 148 % of control, the survivor count (dose: 20.0 mg/kg/injection, schedule: Q01DX015 (ip), vehicle: saline + alcohol) was 6 of 6 on day 10 and the survivor count (dose: 30.0 mg/kg/injection, schedule: Q01DX005 (ip), vehicle: saline + alcohol) was 6 of 6 on day 10. For the same molecule, the T/C (dose: 80.0 mg/kg/injection, schedule: Q04DX003 (ip), vehicle: saline + alcohol) was 138 % of control [5 of 6 alive on day 10].
In the case of `CS(=O)(=O)Nc1ccc(C(=O)CCN2CCCCCC2)cc1`, the survivor count [1] is reported as 1 of 6 on day 10.
With `O=C1C2=C(Nc3cc([N+](=O)[O-])ccc3N2)OC1c1ccccn1` (stereo not given) the T/C [2] was 138 % of control.
For `CC(=O)NC(CCc1ccc(Cl)c(Cl)c1)c1cccc(O)c(=O)c1` (stereo not given), the T/C (dose: 240.0 mg/kg/injection, schedule: Q04DX003 (ip), vehicle: Klucel (hydroxypropylcellulose) (HPC)) was 130 % of control, the T/C [2] was 136 % of control [5 of 6 alive on day 10] and the survivor count [2] was 3 of 6 on day 10. The survivor count (dose: 666.67 mg/kg/injection, schedule: Q04DX003 (ip), vehicle: Klucel (hydroxypropylcellulose) (HPC)) was 0 of 6 on day 10 and the survivor count (dose: 1111.11 mg/kg/injection, schedule: Q04DX003 (ip), vehicle: Klucel (hydroxypropylcellulose) (HPC)) was 0 of 6 on day 10.
For `COc1cccc2c1C(CO)N1C(C#N)C3CC(C(=O)O)C(C1C2)N3C` (stereo not given), the T/C (dose: 1.56 mg/kg/injection, schedule: Q04DX003 (ip), vehicle: saline) was 146 % of control, the T/C (dose: 3.12 mg/kg/injection, schedule: Q04DX003 (ip), vehicle: saline) was 146 % of control and the T/C (dose: 3.12 mg/kg/injection, schedule: Q04DX003 (ip), vehicle: suspension in saline) was 137 % of control. The T/C (dose: 6.25 mg/kg/injection, schedule: Q04DX003 (ip), vehicle: saline) was 147 % of control, the T/C (dose: 6.25 mg/kg/injection, schedule: Q04DX003 (ip), vehicle: suspension in saline) was 148 % of control and the survivor count (dose: 25.0 mg/kg/injection, schedule: Q04DX003 (ip), vehicle: suspension in saline) was 6 of 6 on day 10. For the same molecule, the survivor count (dose: 50.0 mg/kg/injection, schedule: Q04DX003 (ip), vehicle: suspension in saline) was 3 of 6 on day 10.
In the case of `CC(C)NC(=O)OCc1c(COC(=O)NC(C)C)c(-c2ccc(Cl)c(Cl)c2)n2c1CCC2`, the survivor count [1] is reported as 3 of 6 on day 10 and the survivor count [3] is reported as 4 of 6 on day 10.
With `CCC1(O)C(=O)OCc2c1cc1n(c2=O)Cc2cc3cc4c(cc3nc2-1)OCO4` (stereo not given) the survivor count (dose: 2.0 mg/kg/injection, schedule: Q04DX003 (ip), vehicle: saline with Tween-80) was 3 of 6 on day 10, the survivor count (dose: 4.0 mg/kg/injection, schedule: Q04DX003 (ip), vehicle: saline with Tween-80) was 0 of 6 on day 10 and the survivor count (dose: 8.0 mg/kg/injection, schedule: Q04DX003 (ip), vehicle: saline with Tween-80) was 0 of 6 on day 10. For the same molecule, the survivor count (dose: 16.0 mg/kg/injection, schedule: Q04DX003 (ip), vehicle: saline with Tween-80) was 0 of 6 on day 10 and the survivor count (dose: 32.0 mg/kg/injection, schedule: Q04DX003 (ip), vehicle: saline with Tween-80) was 0 of 6 on day 10.
For `COc1cc(C(C)c2cc3c(cc2OCCO)OCO3)cc(OC)c1OC` (stereo not given), the T/C (dose: 300.0 mg/kg/injection, schedule: Q04DX003 (ip), vehicle: saline with Tween-80) was 126 % of control and the survivor count [3] was 1 of 6 on day 10.
For `NCCSC(C[N+](=O)[O-])c1ccccc1Cl` (stereo not given), the T/C (dose: 100.0 mg/kg/injection, schedule: Q04DX003 (ip), vehicle: saline) was 125 % of control and the survivor count (dose: 200.0 mg/kg/injection, schedule: Q04DX003 (ip), vehicle: saline) was 1 of 6 on day 10.
For `Cc1cc2c(=O)cc(-c3ccccc3)oc2c(C(=O)O)c1C`, the survivor count (dose: 500.0 mg/kg/injection, schedule: Q04DX003 (ip), vehicle: saline with Tween-80) was 0 of 6 on day 10 and the survivor count (dose: 1000.0 mg/kg/injection, schedule: Q04DX003 (ip), vehicle: saline with Tween-80) was 0 of 6 on day 10.
In the case of `CC(=O)O[C@H]1C(=O)[C@@]2(C)C(C(OC(=O)c3ccccc3)[C@]3(O)C[C@H](OC(=O)C(OC(=O)CCCC(=O)NCCCN(C)C)C(NC(=O)c4ccccc4)c4ccccc4)C(C)=C1C3(C)C)C1(OC(C)=O)COC1C[C@@H]2O` (stereo not given in full), the T/C (dose: 2.5 mg/kg/injection, schedule: Q01DX009 (ip), vehicle: water) is reported as 139 % of control, the T/C (dose: 5.0 mg/kg/injection, schedule: Q01DX009 (ip), vehicle: water) is reported as 149 % of control and the survivor count (dose: 40.0 mg/kg/injection, schedule: Q01DX009 (ip), vehicle: water) is reported as 7 of 10 on day 10 and 9 of 10 on day 14.
